Test results reported in patent US20230279117A1.
Residue numbers refer to the chain shown, from its start. No constants are given. Whether binding was seen depends on the method and setting. Some entries that bind do so weakly or less than the wild type.

Protein sequences, listed by entry. Tags and fused reporters are not part of them. Lines headed by an entry give the natural chain unless they say otherwise; changes in a name come on top.
UniProt Q9NZQ7: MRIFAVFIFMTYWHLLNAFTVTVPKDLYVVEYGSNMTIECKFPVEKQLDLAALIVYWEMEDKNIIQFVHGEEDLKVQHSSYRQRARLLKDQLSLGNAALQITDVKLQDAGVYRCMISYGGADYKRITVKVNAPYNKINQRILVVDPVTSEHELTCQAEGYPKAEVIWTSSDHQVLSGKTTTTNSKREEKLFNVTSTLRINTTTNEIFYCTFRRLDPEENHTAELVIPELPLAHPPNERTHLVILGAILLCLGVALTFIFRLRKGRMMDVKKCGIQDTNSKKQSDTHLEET

Target: human PD-L1-ECD/His (human) (UniProt Q9NZQ7)
Test: SPR, Fab

B1: hu333-4A2 Fab (Fab, not shown: a dimerising Fc or GST)
heavy (part 1 of 2): EVQLVESGGGLVQPGGSLRLSCAVSGFSLTSYGVHWVRQAPGKGLEWVAVIWAGGSTNYVDSVKGRFTISKDNAKNTVYLQMNSLRAEDTAVYYCAKPYGTSAMDYWGQGTLVTVSS
heavy (part 2 of 2): HHHHHH
light: DIQMTQSPSSLSASVGDRVTITCKASQDVGIVVAWYQQKPGKAPKLLIYWASIRHTGVPSRFSGSGSGTEFTLTISSLQPDDFATYYCQQYSNYPLYTFGQGTKVEIK
binding: binds

B2: hu333-4B2 Fab (Fab, not shown: a dimerising Fc or GST)
heavy (part 1 of 2): B1 heavy (part 1 of 2) with V60A, N73T, A74S
heavy (part 2 of 2): HHHHHH
light: B1 light
binding: binds
